{"source": "patent US20200216493A1", "about": "(FERRING B.V., priority 2016, published 2020)", "experiment": "general procedure: Fmoc solid-phase peptide synthesis; HBTU/TEA; DIC/HOBt; HBTU/N-methylmorpholine", "details": "whole synthesis; for isolated yield: scale of the general procedure 1-3 mmol, 0.1-0.3 mmol, 0.2 mmol", "key": {"[1]": {"details": "overall yield from starting resin, TFA salt"}}}
{"substance": "H-D-Me2Nal-Ile-Ser-D-Gln-D-aIle-Ile-Ser-c(D-Thr-Ala-Har-Ile)", "values": [{"measurement": "isolated mass", "setting": "Di-TFA salt", "value": 108, "unit": "mg"}, {"measurement": "isolated yield", "setting": "from starting resin, TFA salt", "value": 35, "unit": "%"}]}
{"substance": "H-D-MePhe(4-Cl)-Ile-Ser-D-Gln-D-aIle-Ile-Ser-c(D-Thr-Ala-Har-Ile)", "values": [{"measurement": "isolated mass", "setting": "Di-TFA salt", "value": 143, "unit": "mg"}, {"measurement": "isolated yield", "setting": "from starting resin, TFA salt", "value": 31, "unit": "%"}]}
{"substance": "H-D-MePhe-Ile-Ser-D-Gln-D-aIle-Ile-Ser-c(D-Thr-Ala-Glu(NH(CH2)2NMe2)-Ile)", "values": [{"measurement": "isolated mass", "setting": "Di-TFA salt", "value": 11.7, "unit": "mg"}, {"measurement": "isolated yield", "setting": "[1]", "value": 2, "unit": "%"}, {"measurement": "isolated mass", "setting": "scale 0.32 mmol, TFA salt", "value": 88, "unit": "mg"}]}
{"substance": "H-D-MePhe-Ile-Ser-D-Gln-D-aIle-Ile-Ser-c(D-Thr-Ala-Har-Ile)", "values": [{"measurement": "isolated mass", "setting": "Di-TFA salt", "value": 38, "unit": "mg"}, {"measurement": "isolated yield", "setting": "[1]", "value": 10, "unit": "%"}, {"measurement": "isolated mass", "setting": "scale 0.5 mmol, TFA salt", "value": 161, "unit": "mg"}]}
{"substance": "H-D-MePhe-Ile-Ser-D-Gln-D-aIle-Ile-Ser-c(D-Thr-Ala-Lys(Bn)-Ile)", "values": [{"measurement": "isolated mass", "setting": "Di-TFA salt", "value": 29, "unit": "mg"}, {"measurement": "isolated yield", "setting": "from starting resin, TFA salt", "value": 11, "unit": "%"}]}
{"substance": "H-D-MePhe-Ile-Ser-D-Lys-D-aIle-Ile-Ser-c(D-Thr-Ala-Lys-Ile)", "values": [{"measurement": "isolated yield", "setting": "[1]", "value": 3, "unit": "%"}, {"measurement": "isolated mass", "setting": "scale 0.2 mmol, TFA salt", "value": 26.1, "unit": "mg"}, {"measurement": "isolated mass", "setting": "tri-TFA salt", "value": 9.7, "unit": "mg"}]}
{"substance": "H-D-MePhe-Ile-lNal-D-Gln-D-aIle-Ile-Ser-c(D-Thr-Ala-Har-Ile)", "values": [{"measurement": "isolated mass", "setting": "Di-TFA salt", "value": 20, "unit": "mg"}, {"measurement": "isolated yield", "setting": "from starting resin, TFA salt", "value": 7, "unit": "%"}]}
{"substance": "H-D-MeTyr(Me)-Ile-Ser-D-Gln-D-aIle-Ile-Ser-c(D-Thr-Ala-Har-Ile)", "values": [{"measurement": "isolated mass", "setting": "Di-TFA salt", "value": 54, "unit": "mg"}, {"measurement": "isolated yield", "setting": "from starting resin, TFA salt", "value": 18, "unit": "%"}]}
{"substance": "H-D-Phe(4-Cl)-Ile-Ser-D-Gln-D-aIle-Ile-Ser-c(D-Thr-Ala-Lys-Ile)", "values": [{"measurement": "isolated mass", "setting": "Di-TFA salt", "value": 12.2, "unit": "mg"}, {"measurement": "isolated mass", "setting": "TFA salt", "value": 44.4, "unit": "mg"}, {"measurement": "isolated yield", "setting": "overall yield from starting resin, Di-TFA salt", "value": 4, "unit": "%"}]}
